Measured values reported in patent US11033572B2, “Molecular adjuvants for enhanced cytosolic delivery of active agents” (Universiteit Gent, priority 2017, dated 2021).
Some of these results come from one statement about several compounds together.

Tested on: H1299_eGFP cells
Test: Cell viability following CAD incubation (CellTiter GLO)
Format: cell-based
Conditions: sequential to siNG transfection, 20 h
Procedure: The silencing potential of siPLK1-NGs was established through evaluating the cell viability. Hereto, we applied the CellTiter GLO® assay (Promega, Belgium) according to the manufacturer's guidelines. Before initiating the assay, the culture plates and reconstituted assay buffer were placed at room temperature for 30 minutes. Next, the culture medium was replaced by 250 μL fresh cell medium and an equal volume of assay buffer was added. To induce complete cell lysis, the plates were shaken during 2 minutes and the signal was allowed to stabilize the following 10 minutes. 100 μL from each well was subsequently transferred to an opaque 96-well plate, which was measured with a GloMax® 96 Microplate Luminometer (Promega, Belgium). Three biological replicates were performed and data are expressed as the mean cell viability±SEM.
Please note that we only applied siCTRL-loaded NGs in this set of experiments. With the interest of evaluating the possible effect of our treatment on cell viability, the CellTiter GLO® assay was performed as described above. Again, three biological replicates were performed and data are expressed as the mean±SEM.

COc1ccccc1OCCNCC(O)COc1cccc2[nH]c3ccccc3c12 (stereo not shown) [(26) Carvedilol, Carvedilol]
concentration with significant additional cytotoxicity compared to siNGs alone: ≥ 20 µM
